From the supplement of paper PMC8256030 come the findings set out here.

Some of the results follow. This data set is noisy: repeats of one test often differ as much as different tests do.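 HEK293T cells were given each compound shortly before transfection with a reporter in which red mCherry is followed by the SARS-CoV-2 frameshift element and then GFP in the −1 frame, so GFP appears only after frameshifting.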

For the assay, the system named is SARS-CoV-2 -1 PRF reporter mCherry-FSE-GFP(-1). The experiment in a line: mCherry (red) intensity as percent of control; higher = higher upstream reporter expression. The note with it: 10 µM; 24 h; HEK293T.
The compound `N#Cc1c[nH]c2c(C(=O)N3CCN(CCc4ccc(F)cc4)CC3)cccc12` [pruvanserin] had a mCherry of 104%.
The figure for `O=C(CCCN1CCC(O)(c2cccc(C(F)(F)F)c2)CC1)c1ccc(F)cc1` [trifluperidol] is 94.8%.
Consider `CCOC(=O)NNc1ccc(N(CC)CC(C)O)nn1` (configuration not stated) [cadralazine], for which the mCherry was found to be 64.7%.
Consider `O=c1[nH]c2cc(Cl)c(Cl)c([N+](=O)[O-])c2[nH]c1=O` [licostinel], for which the mCherry stood at 87.6%.
Regarding `O=C([O-])[C@H](O)[C@@H](O)[C@H](O)[C@H](O)CO.[Na+]`, the mCherry came out at 121%.
The figure for `O=C1N(c2ccccc2)c2ccccc2C1(Cc1ccncc1)Cc1ccncc1` [linopirdine] is 97.9%.
The figure for `CCN(CC)CCCN1c2ccccc2Sc2ccc(Cl)cc21` [chlorproethazine] is 52.5%; for `COc1ccc(N(CCCC(=O)O)C(=O)c2ccc(Cl)cc2)cc1` [clanobutin] it is 58.8%.
For the compound `Cc1cc(-c2ccccc2)nnc1NCCN1CCOCC1` [minaprine], the mCherry was 101%.
The figure for `CN(C)CCCN1c2ccccc2Sc2cccnc21` [prothipendyl] is 46.5%; for `Cc1c(C)c2c(c(C)c1O)CCC(C)(CCCC(C)CCCC(C)CCCC(C)C)O2` (configuration not stated) [Vitamin E] it is 93.6%; for `C[n+]1cc2c3c(ccc2c2ccc4cc5c(cc4c21)OCO5)OCO3` [sanguinarium chloride] it is 11.1%.
The same measure for `N=C(N)N`: 105%.
For `Clc1cccc(C(c2ccc3[nH]cnc3c2)n2ccnc2)c1` (configuration not stated) [liarozole], the mCherry amounted to 100%.
Take `CCOC(CN1CCN(CC(C)C(=O)c2ccccc2)CC1)c1ccccc1` (configuration not stated) [eprazinone]: the mCherry was found to be 115%.
In the case of `O=C1CC[C@@H](C(=O)N2CSC[C@H]2C(=O)O)N1` [pidotimod], the mCherry is 110%.
On to `C[C@]12CC[C@H]3[C@@H](CCC4=CC(=O)CC[C@@]43C)[C@@H]1CC[C@@H]2C(=O)CO` [desoxycortone], for which the mCherry was 76.3%.
Consider `COc1ccc(C(=O)N2CCN(c3ccc4c(c3)CCC(=O)N4)CC2)cc1OC` [vesnarinone], for which the mCherry came out at 116%.
The same measure for `CC(C)(CO)[C@@H](O)C(=O)NCCC(=O)NCCSSCCNC(=O)CCNC(=O)[C@H](O)C(C)(C)CO`: 83.1%; for `O=C1C(=O)c2ccccc2C(O)=C1C1CCC(c2ccc(Cl)cc2)CC1` (configuration not stated) [Atovaquone]: 113%; for `CCO/C([O-])=N/c1c[n+](N2CCOCC2)no1`: 151%.
The same measure for `O=C1NCCNC1c1cccs1` (configuration not stated) [tenilsetam]: 104%.
`c1ccc(Cc2nc3ccccc3[nH]2)cc1` [bendazol] gave a mCherry of 110%.
The figure for `CCCN(CC)C(CC)C(=O)Nc1c(C)cccc1C` (configuration not stated) [Etidocaine] is 96.1%; for `Cc1nc(Nc2ncc(C(=O)Nc3c(C)cccc3Cl)s2)cc(N2CCN(CCO)CC2)n1` [dasatinib] it is 74.4%; for `N[C@@H](CCC(=O)N[C@@H](CS)C(=O)NCC(=O)O)C(=O)O` it is 129%.
The figure for `C[C@@H]1C[C@H]2[C@@H]3C[C@H](F)C4=CC(=O)C=C[C@]4(C)[C@@]3(F)[C@@H](O)C[C@]2(C)[C@@]1(O)C(=O)COC(=O)C(C)(C)C` [Locorten] is 105%.
The same measure for `CCCCCCCCCCCCCCCC(=O)OC[C@@H](O)[C@H]1OC[C@H](O)[C@H]1O` [sorbitan palmitate]: 86.8%.
Regarding `CC(C)(C)NC[C@H](O)c1ccc(O)c(CO)c1` [levosalbutamol], the mCherry came to 108%.
The figure for `O=c1ccc2ccccc2o1` is 112%; for `COc1ccc(OC(=O)N(CC(=O)O)Cc2ccc(OCCc3nc(-c4ccccc4)oc3C)cc2)cc1` [muraglitazar] it is 102%.
`CC1=C(C(=O)O)N2C(=O)[C@@H](NC(=O)[C@H](N)C3=CCC=CC3)[C@H]2SC1` [cefradine] yielded a mCherry of 73.2%.
The same measure for `COC(=O)N[C@H](C(=O)N[C@@H](Cc1ccccc1)[C@@H](O)CN(Cc1ccc(-c2ccccn2)cc1)NC(=O)[C@@H](NC(=O)OC)C(C)(C)C)C(C)(C)C` [atazanavir]: 85.2%; for `Clc1ccc(C(c2ccccc2Cl)C(Cl)Cl)cc1` (configuration not stated) [mitotane]: 132%.
The same measure for `Nc1nc2c([nH]1)c(=O)n(CC1CC1)c(=O)n2CC1CC1` [cipamfylline]: 78.2%; for `CNCC(O)c1ccc(OC(=O)C(C)(C)C)c(OC(=O)C(C)(C)C)c1` (configuration not stated) [dipivefrine]: 101%.
The figure for `CC(=O)O[C@H]1C(=O)[C@@]2(C)[C@H]([C@H](OC(=O)c3ccccc3)[C@]3(O)C[C@H](OC(=O)[C@H](O)[C@@H](NC(=O)c4ccccc4)c4ccccc4)C(C)=C1C3(C)C)[C@]1(OC(C)=O)CO[C@@H]1C[C@@H]2O` [Taxol] is 299%.
